Results: PMC11784221, “Platelet factor 4-derived C15 peptide broadly inhibits enteroviruses by disrupting viral attachment” (Journal of Virology, 2025)
No constants are given. Whether binding was seen depends on the method and setting. In cells and extracts the contact can be indirect. For some of these results: A result given as binding can be weak or reduced; the word gives no strength. Sequences can lack the tags named with a protein.

T1: GFP-C15 (C15 of PF4 fused to GFP)
T1 sequence: QAPLYKKIIKKLLES

B1: PF4-Myc (wild-type platelet factor 4 with a Myc tag) (protein, UniProt P02776 32-101)
chain: EAEEDGDLQCLCVKTTSQVRPRHITSLEVIKAGPHCPTAQLIATLKNGRKICLDLQAPLYKKIIKKLLES

Experiments:
Assay in all cases: co-IP
[1] = target: T1, GFP-C15 (C15 of PF4 fused to GFP)
[2] = target: EVD68-VP3-Δ155–170-HA (enterovirus D68)
[3] = target: CA6-VP3-Δ155–170-HA (coxsackievirus A6)

| Molecule | binding [1] | binding [2] | binding [3] |
| --- | --- | --- | --- |
| CA6-VP3-D156A-HA (coxsackievirus A6) | binds |  |  |
| EVD68-VP3-D156A-HA (enterovirus D68) | binds |  |  |
| B1 |  | no binding | no binding |
